Data as given in paper PMC10874388, “Cyclic peptides discriminate BCL-2 and its clinical mutants from BCL-XL by engaging a single-residue discrepancy” (Nature Communications, 2024).
A number of entries come with more than one value. The other results are left out here. An entry can have further records. Results that share an entry differ for a reason that is not stated; some may be repeats, others may stem from another dose, organism or construct than stated.

Experiments:
RS4:11 cells = assay: Cell viability assay (CellTiter-Glo), RS4:11; settings: 5000 nM, single wells
A549 cells (control) = assay: Cell viability assay (CellTiter-Glo), normal A549 (control); settings: 12.5 uM, single wells

For `O=C(c1cc(-c2cc3c(cc2C(=O)N2Cc4ccccc4C[C@H]2CN2CCOCC2)OCO3)n2c1CCCC2)N(c1ccccc1)c1ccc(O)cc1` [S55746], the raw luminescence reading (RS4:11 cells) was 238.0, 413.0, 519.0, 340.3, 484.4, 425.0 and the control inhibiton rate (A549 cells (control)) was 25, 14, 24, 17, 22%.
